PubChem BioAssay AID1259254 – NCATS, 2017
Shown is a random part of about 59,000 reagents. In the full data, about 1,550 (2.6%) are marked active. 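G2 share is only a proxy for re-replication; each gene was hit by three separate siRNAs, and active genes were retested.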 Entries without a mark were called inactive. Reagents against one gene are numbered here. Not all columns of the deposit are shown. The record does not give: the amount of reagent.

Aim: 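Gene knock-downs that lead to re-replication, shown by excess G2 DNA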 (primary screen)
Cell system: human HCT116 colorectal cancer cells
Reagent: single siRNA against human genes
Timing: 3 days
Measurement: 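Imaged Hoechst DNA stain sorts each cell into a cycle phase by DNA amount; per plate, G2 fraction set to 0% for non-targeting and 100% for GMNN siRNA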
Reading the numbers: G2 robust z-score: higher = more G2 cells, more excess DNA replication
Call rule: 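Active siRNAs have a G2 robust z of 5 or more median absolute deviations over the median, which in these data means about 38% or higher of GMNN control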

INTS10 (integrator complex subunit 10) #1
- G2 robust z-score: 1.47

INTS10 (integrator complex subunit 10) #2
- G2 robust z-score: -0.206

INTS10 (integrator complex subunit 10) #3
- G2 robust z-score: 0.711

TBCA (tubulin folding cofactor A) #1
- G2 robust z-score: -0.295

TBCA (tubulin folding cofactor A) #2
- G2 robust z-score: -0.712

TBCA (tubulin folding cofactor A) #3
- G2 robust z-score: 0.376

PRKG1 (protein kinase cGMP-dependent 1) #1
- G2 robust z-score: -1.66

PRKG1 (protein kinase cGMP-dependent 1) #2
- G2 robust z-score: -0.956

PRKG1 (protein kinase cGMP-dependent 1) #3
- G2 robust z-score: 0.441

IL2 (interleukin 2) #1
- G2 robust z-score: -0.445

IL2 (interleukin 2) #2
- G2 robust z-score: -1.06

IL2 (interleukin 2) #3
- G2 robust z-score: 0.798

TCAIM (T cell activation inhibitor, mitochondrial) #1
- G2 robust z-score: 0.982

TCAIM (T cell activation inhibitor, mitochondrial) #2
- G2 robust z-score: 0.262

TCAIM (T cell activation inhibitor, mitochondrial) #3
- G2 robust z-score: 0.105

ALAS1 (5'-aminolevulinate synthase 1) #1
- G2 robust z-score: 4.59

ALAS1 (5'-aminolevulinate synthase 1) #2
- G2 robust z-score: 0.621

ALAS1 (5'-aminolevulinate synthase 1) #3
- G2 robust z-score: -1.26

2 entries from above in another layout:
Target gene | reagent no. | G2 robust z-score
TBCA (tubulin folding cofactor A) | 2 | -0.712
TBCA (tubulin folding cofactor A) | 3 | 0.376
